Test results from publication PMC7819943, “Rice protein-binding microarrays: a tool to detect cis-acting elements near promoter regions in rice”.
The other results are listed elsewhere or left out.

These sequences were tested against T1, OsSMF1 (Oryza sativa, UniProt Q6ZLB0 1-436) (assay: protein-binding microarray (RPBM); PBS, 2% BSA, 51.3 ng/ul salmon testes DNA, 50 uM zinc acetate, 200 nM TF, 25 C, 1 h; high values mean tight binding). Conditions: protein: recombinant; tags: N-terminal polyhistidine and DsRed monomer fusion (pET32a); chain copies: 2; label: CyDye5-dUTP incorporated in the synthesized complementary strand; 3' TTTTT single-stranded linker to array surface; dsDNA, one strand shown.
T1 sequence: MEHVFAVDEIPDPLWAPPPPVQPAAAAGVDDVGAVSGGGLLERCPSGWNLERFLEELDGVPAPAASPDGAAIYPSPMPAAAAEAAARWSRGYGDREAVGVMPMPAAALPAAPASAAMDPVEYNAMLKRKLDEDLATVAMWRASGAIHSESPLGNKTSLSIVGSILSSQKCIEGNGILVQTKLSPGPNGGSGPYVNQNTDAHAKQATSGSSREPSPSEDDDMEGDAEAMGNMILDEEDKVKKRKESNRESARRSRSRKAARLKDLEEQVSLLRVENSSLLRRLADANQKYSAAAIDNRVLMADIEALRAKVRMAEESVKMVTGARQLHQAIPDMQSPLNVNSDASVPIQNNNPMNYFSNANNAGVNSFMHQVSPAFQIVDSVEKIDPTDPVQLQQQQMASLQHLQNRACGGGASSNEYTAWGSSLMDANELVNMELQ
Method in brief: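 Ni–NTA purification followed expression in E. coli BL21-CodonPlus of transcription factors fused N-terminally to a polyhistidine tag and DsRed. At 200 nM in PBS with 2% BSA, salmon testes DNA and 50 µM zinc acetate, the protein was incubated for 1 h at 25 °C with a custom Agilent array that had been primer-extended with Cy5-dUTP and blocked with 2% BSA. After washing, the array was read on an Axon 4000B scanner. The binding signal is per-feature fluorescence intensity in arbitrary units.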
In the case of “TATATAAGCCTCACCAGAACTGACATATGCTGAGTCTGCACGGAGTCACCTAGTGCAG”, the binding signal is reported as 3350 fluorescence intensity (a.u.).
For “ACATATATAATGGCAGTGTGGCGTGCGGTGCGTGGGTGGTCGGAGTCACCTAGTGCAG”, the binding signal was 3280 fluorescence intensity (a.u.).
“AGAGAGAATGACATGTGGGTCCCACATGCTGACTCAACGGCGGAGTCACCTAGTGCAG” was tested, and the binding signal was 10900 fluorescence intensity (a.u.).
With “CGTGTTGTTCTTATATACGTGTTCTAAAAGTTGACGAGCGCGGAGTCACCTAGTGCAG” the binding signal was 3930 fluorescence intensity (a.u.).
“GGCGCACCGTCACGAACCGCATCGGTCCAGCGAGCTATCACGGAGTCACCTAGTGCAG” was tested, and the binding signal was 3560 fluorescence intensity (a.u.).
In the case of “TGATCCTCATGTGCAGTTGAGTCACTGATATGTGGACCACCGGAGTCACCTAGTGCAG”, the binding signal is reported as 5990 fluorescence intensity (a.u.).
With “GATTGTTTAGTGGCCCGTATCATAAGACCGGCCACGTCGTCGGAGTCACCTAGTGCAG” the binding signal was 6910 fluorescence intensity (a.u.).
In the case of “GAGATTATTCACAGGTAGCATGACGCACCACAATCTCCGCCGGAGTCACCTAGTGCAG”, the binding signal is reported as 5320 fluorescence intensity (a.u.).
“GAGATATATCCAGATTCATCTCCATACCGTGTCTCTAGATCGGAGTCACCTAGTGCAG” was tested, and the binding signal was 3160 fluorescence intensity (a.u.).
“CACCTCTGCCGCTGCTCCAAATCGTGTCACTGCTCCTCACCGGAGTCACCTAGTGCAG” was tested, and the binding signal was 6340 fluorescence intensity (a.u.).
With “ATTACATGAAATATGCATACTCCTTTATGGAGAGACAGTGCGGAGTCACCTAGTGCAG” the binding signal was 26800 fluorescence intensity (a.u.).
For “TCCCAGTTGAGTTGCACACGCACGCACGCCTCGCCACCCCCGGAGTCACCTAGTGCAG”, the binding signal was 4220 fluorescence intensity (a.u.).
“ACAAATGACGCATTCCCCGACATTCCATACTTGCTCGTCACGGAGTCACCTAGTGCAG” was tested, and the binding signal was 6020 fluorescence intensity (a.u.).
With “CTAATGCTCATCTTGACACGCAATTTATATGCATTCATATCGGAGTCACCTAGTGCAG” the binding signal was 4430 fluorescence intensity (a.u.).
With “TCCTTTGACCAAATCCGAAACTACCAATGTCATGTTCACCCGGAGTCACCTAGTGCAG” the binding signal was 3150 fluorescence intensity (a.u.).
In the case of “CCTTCCTGACACCACCCGCCCACCACAGCTTCCCGTTCCTCGGAGTCACCTAGTGCAG”, the binding signal is reported as 20100 fluorescence intensity (a.u.).
“CGCCCTAATCCTCTACAGTAATCATGCTGACATGGTGGCTCGGAGTCACCTAGTGCAG” was tested, and the binding signal was 4160 fluorescence intensity (a.u.).
For “TACCTGTGACCCACGTAATCAAGCCTGACGTTAGCACAATCGGAGTCACCTAGTGCAG”, the binding signal was 8980 fluorescence intensity (a.u.).
For “TTTTCCGCGATTCAGCCACGTACACGCACCGTCCCCTTCCCGGAGTCACCTAGTGCAG”, the binding signal was 8710 fluorescence intensity (a.u.).
“AAACGAAGATTAAAGGTTGATAAAAGGCCTATTTAGATCTCGGAGTCACCTAGTGCAG” was tested, and the binding signal was 25000 fluorescence intensity (a.u.).
“TGTGCGGATGGCGTCATTGCTTAGCTTAGCAATAGCATCGCGGAGTCACCTAGTGCAG” was tested, and the binding signal was 8240 fluorescence intensity (a.u.).
“ATGCCATTGATTCAATAGTGAATCATCGTTCTTTCTGGATCGGAGTCACCTAGTGCAG” was tested, and the binding signal was 3550 fluorescence intensity (a.u.).
“CCGCCGCTGGCGTGTCGAGCTCTGTCTCCAACTCCTCGCCCGGAGTCACCTAGTGCAG” was tested, and the binding signal was 6370 fluorescence intensity (a.u.).
In the case of “TATCTAGCTATCTATCAGCTGCCTTCCATCGTCAGCACACCGGAGTCACCTAGTGCAG”, the binding signal is reported as 8570 fluorescence intensity (a.u.).
With “ACCGTGTGGGTATGGTGTGCGTGTGTAGTGGTGTTTGTGCCGGAGTCACCTAGTGCAG” the binding signal was 3860 fluorescence intensity (a.u.).
With “GGGAAAGGATATGAGTAGGCGCTGACATATTGGCTTCACACGGAGTCACCTAGTGCAG” the binding signal was 3220 fluorescence intensity (a.u.).
“TTACCAAACTGGAAATTTCGTGGTGTTACAAAATAGGACACGGAGTCACCTAGTGCAG” was tested, and the binding signal was 3280 fluorescence intensity (a.u.).
With “GGTGATTCTGTGCTGTTGATGATGTTTTCTCTGAAGATTCCGGAGTCACCTAGTGCAG” the binding signal was 3850 fluorescence intensity (a.u.).
For “TAACTGTTATGCTGTGGTATGATGGCTTGTACATTGCGTACGGAGTCACCTAGTGCAG”, the binding signal was 3230 fluorescence intensity (a.u.).
With “CGATCCAAACCCTCGACTGGGGCCCACATGTCAGCGACCACGGAGTCACCTAGTGCAG” the binding signal was 3570 fluorescence intensity (a.u.).
For “ATCCCTGAAATTACAGCGGTGGACGTCATGACACACTTATCGGAGTCACCTAGTGCAG”, the binding signal was 3860 fluorescence intensity (a.u.).
“CCTCCACACAAACATAAATCTGATGTGGTAACTTGTATAGCGGAGTCACCTAGTGCAG” was tested, and the binding signal was 5260 fluorescence intensity (a.u.).
“GCCCTTCGGCGTACGGCAGCGCCATGACACCCGGTGGACCCGGAGTCACCTAGTGCAG” was tested, and the binding signal was 3770 fluorescence intensity (a.u.).
With “ACATAGATGGACCCATTTGTCATCCACTCGGAGTGTCAAACGGAGTCACCTAGTGCAG” the binding signal was 3600 fluorescence intensity (a.u.).
For “CCACACGAAACGGAAAGCGGTCGGGTTGGCATATATACGCCGGAGTCACCTAGTGCAG”, the binding signal was 4390 fluorescence intensity (a.u.).
“ACAGCGTGTAGGGTAACTTTCCATGACACAGCTGCAGAGCCGGAGTCACCTAGTGCAG” was tested, and the binding signal was 3510 fluorescence intensity (a.u.).
In the case of “CTTTTCCTGTCAAGTGGTCTCATTTCTTTGACTCTTCGTCCGGAGTCACCTAGTGCAG”, the binding signal is reported as 5340 fluorescence intensity (a.u.).
“GTGTCCCGGTGCCTTTTCCACGCCCACCGTTGCTAGCTACCGGAGTCACCTAGTGCAG” was tested, and the binding signal was 3790 fluorescence intensity (a.u.).
“CGGCGCGCCGTGATTGTGCCTGATTGGGGTGGGGTTGGGGCGGAGTCACCTAGTGCAG” was tested, and the binding signal was 5710 fluorescence intensity (a.u.).
In the case of “CTCTCCGCTGTCGGAGACGACGCGGCCACCAAACCCTAGCCGGAGTCACCTAGTGCAG”, the binding signal is reported as 3490 fluorescence intensity (a.u.).
In the case of “GTAAGACGAGGACAATTCAAACCATCCACGTAGGCATCACCGGAGTCACCTAGTGCAG”, the binding signal is reported as 14800 fluorescence intensity (a.u.).
For “TACCACCACCCACTACCCTTCCCGCTCGGAATAGGAGGGGCGGAGTCACCTAGTGCAG”, the binding signal was 3330 fluorescence intensity (a.u.).
